In patent publication US5264432A, “5-(1-aminoacyl)-5,10-dihydro-11H-dibenzo[b,e](1,4)diazepin-11-ones” (Arzneimittelwerk Dresden G.m.b.H, priority 1989, dated 1993):

System: CaCl2 arrhythmia of the rat
Test: CaCl2 arrhythmia of the rat (antifibrillatory effect)
Conditions: ratio LD50 iv./ED50 iv.
Protocol: The data is analyzed by the Probit regression analysis with a confidence interval of p=0.05 (values in parentheses).
Q is the ratio of LD50 iv. /ED50 iv. to determine therapeutic breadth range.

## CCN(CC)CC(=O)Nc1c(C)cccc1C [Lidocaine, reference compound]
  Q = LD50/ED50 (therapeutic breadth): 5.8
